# Where a name gives a salt, the structure may show the parent alone. ± gives the standard deviation of the averaged measurements. Some of the results follow. These are raw signals, not scaled to a control.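 HeLa cells imaged for ribosome-assembly readouts (ENP1 staining with or without export block, or inducible tagged ribosomal protein reporters); machine learning classified each cell's signal location against solvent (DMSO) controls. Hits exceeded the DMSO false-positive mean by five standard deviations, then were visually confirmed; three biological replicates.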
# System: HeLa RPL29-GFP reporter
# Test: fraction of reporter-positive cells with nuclear (nucleolar or nucleolar/nucleoplasmic) RPL29-GFP (MainHitrate); higher = more cells with nucleolar/nuclear readout signal (for ENP1 -LMB: less RNAPI inhibition; for +LMB ENP1 and RP reporters: stronger nuclear/nucleolar retention, i.e. ribosome biogenesis defect)
# Conditions: concentration: 1 µM; treatment time: 6 h
row,Compound,fraction of reporter-positive cells with nuclear
1,Cc1ccc(-c2cc(C(F)(F)F)nn2-c2ccc(S(N)(=O)=O)cc2)cc1 [Celecoxib],0.201 ± 0.076
2,CC(C)(Sc1cc(C(C)(C)C)c(O)c(C(C)(C)C)c1)Sc1cc(C(C)(C)C)c(O)c(C(C)(C)C)c1 [Probucol],0.23 ± 0.078
3,CN1CCC(OC(c2ccccc2)c2ccccc2)CC1 [Diphenylpyraline HCl],0.275 ± 0.25
4,C[C@]12CCC(=O)C=C1CC[C@@H]1[C@@H]2[C@@H](O)C[C@@]2(C)[C@H]1CC[C@]2(O)C(=O)CO [Hydrocortisone (Cortisol)],0.25 ± 0.053
5,CNC[C@@H](O)c1ccc(O)c(O)c1 [L-Adrenaline (Epinephrine)],0.215 ± 0.057
6,CC(C)Cn1cnc2c(N)nc3ccccc3c21 [Imiquimod],0.222 ± 0.058
7,C=C(NC(=O)C(=C)NC(=O)c1csc(C2=N[C@@H]3c4csc(n4)[C@H]4NC(=O)c5csc(n5)[C@H]([C@](C)(O)[C@@H](C)O)NC(=O)[C@H]5CSC(=N5)/C(=C/C)NC(=O)[C@H]([C@@H](C)O)NC(=O)c5csc(n5)[C@]3(CC2)NC(=O)[C@H](C)NC(=O)C(=C)NC(=O)[C@H](C)NC(=O)[C@H]([C@@H](C)CC)N[C@@H]2C=Cc3c([C@H](C)O)cc(nc3[C@H]2O)C(=O)O[C@@H]4C)n1)C(N)=O [Thiostrepton],0.325 ± 0.27
8,CC(O)(P(=O)(O)O)P(=O)(O)O [Etidronate (Didronel)],0.234 ± 0.076
9,C[C@@H]1C[C@H]2[C@@H]3CCC4=CC(=O)C=C[C@]4(C)[C@@]3(F)[C@@H](O)C[C@]2(C)[C@@]1(O)C(=O)CO [Dexamethasone],0.232 ± 0.043
10,O=C(O)c1cc(=O)c2ccccc2o1 [Chromocarb],0.21 ± 0.073
11,COc1ccc([C@@H]2Sc3ccccc3N(CCN(C)C)C(=O)[C@@H]2OC(C)=O)cc1 [Diltiazem HCl (Tiazac)],0.225 ± 0.089
12,CN1CCC(=C2c3ccccc3CC(=O)c3sccc32)CC1 [Ketotifen fumarate (Zaditor)],0.22 ± 0.074
13,Cc1ncc([N+](=O)[O-])n1CC(O)CCl (stereo unspecified) [Ornidazole],0.213 ± 0.087
14,COc1cc2nc(N3CCN(C(=O)C4CCCO4)CC3)nc(N)c2cc1OC (stereo unspecified) [Terazosin HCl (Hytrin)],0.232 ± 0.13
15,COc1ccccc1OCC(O)CO (stereo unspecified) [Guaifenesin (Guaiphenesin)],0.224 ± 0.072
16,CC(C)c1nc(CN(C)C(=O)N[C@H](C(=O)N[C@@H](Cc2ccccc2)C[C@H](O)[C@H](Cc2ccccc2)NC(=O)OCc2cncs2)C(C)C)cs1 [Ritonavir],0.254 ± 0.1
17,CCC1(c2ccccc2)C(=O)NCNC1=O [Primidone (Mysoline)],0.249 ± 0.074
18,CS(=O)(=O)c1ccc(C(=O)Nc2ccc(Cl)c(-c3ccccn3)c2)c(Cl)c1 [Vismodegib (GDC-0449)],0.188 ± 0.043
19,NC(=O)c1ncn([C@@H]2O[C@H](CO)[C@@H](O)[C@H]2O)c1N [Acadesine],0.258 ± 0.079
20,CN(C)CCC(c1ccc(Cl)cc1)c1ccccn1 (stereo unspecified) [Chlorpheniramine Maleate],0.235 ± 0.076
21,CC(C)(Oc1ccc(CCNC(=O)c2ccc(Cl)cc2)cc1)C(=O)O [Bezafibrate],0.195 ± 0.034
22,"CN(C)CCOc1ccc(/C(=C(/CCCl)c2ccccc2)c2ccccc2)cc1 [Toremifene Citrate (Fareston, Acapodene)]",0.206 ± 0.073
23,Nc1ccc(S(=O)(=O)Nc2nccs2)cc1 [Sulfathiazole],0.219 ± 0.033
24,C[C@]12CC[C@@H]3c4ccc(O)cc4CC[C@H]3[C@@H]1CC[C@@H]2O [Estradiol],0.214 ± 0.072
25,C[C@@H]1C/C=C/C=C/C=C/C=C/[C@H](O[C@@H]2O[C@H](C)[C@@H](O)[C@H](N)[C@@H]2O)C[C@@H]2O[C@](O)(C[C@@H](O)C[C@H]3O[C@@H]3/C=C/C(=O)O1)C[C@H](O)[C@H]2C(=O)O [Natamycin (Pimaricin)],0.239 ± 0.068
26,C[C@](N)(Cc1ccc(O)c(O)c1)C(=O)O [Methyldopa (Aldomet)],0.211 ± 0.08

# Part of the list above in another layout.
row	Compound	fraction of reporter-positive cells with nuclear
3	CN1CCC(OC(c2ccccc2)c2ccccc2)CC1 [Diphenylpyraline HCl]	0.275 ± 0.25
26	C[C@](N)(Cc1ccc(O)c(O)c1)C(=O)O [Methyldopa (Aldomet)]	0.211 ± 0.08
